Experimental data: PubChem BioAssay AID1347423 (Functional Genomics Laboratory (NCATS/FGL), 2020)
Out of some 52,000 sequences screened, about 210 (0.4%) were called active.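 How the source made its calls: active means gene whose silencing raises cell survival under the drug, median off-target-corrected z-score across its silencing RNAs 2 or more; inactive means the rest.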 This is one part of the list.

Test: Resistance to Poly (ADP-Ribose) Polymerase inhibitor: Gene Identification via Genome-wide siRNA Screen
Settings: mouse BRCA2 R2336H ES cells, olaparib, CellTiter-Glo viability; stronger effect = higher value
Summary of the method: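 Genome-wide siRNA screen (3 siRNAs/gene, 20 nM) in mouse ES cells carrying hypomorphic BRCA2 R2336H; olaparib 500 nM added 48 h post-transfection, CellTiter-Glo viability 72 h later. Normalized to plate-median negative control; MAD z-scores, gene median, seed-adjusted.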

| Sequence | z-score |
| --- | --- |
| GCCAAUGUGGAAUCAAAGGTT against Ms4a6c | inactive: -0.248 |
| GGGAAAGGAAACAUGGAACTT against Apom | inactive: 1.27 |
| CCAGUGCAGGACCUCAUUUTT against Sod1 | inactive: -0.971 |
| GGUAUUUGGAAUCCAAUUGTT against Maged2 | inactive: 0.0194 |
| GGUUGAAUCAAGAGGAAAATT against 1300007B12Rik | inactive: 1.35 |
| CGAGAUUUGGAAUGCCCUGTT against Fez2 | inactive: -0.342 |
| GGUCAUAGAAGGGUUCAGCTT against Sbsn | inactive: 0.486 |
| GGUCUCAUUAUGACAGUGATT against Orc2l | inactive: -1.6 |
| CCCAGAGAACUAGAAACGATT against 9430097D07Rik | inactive: 0.0949 |
| GGAUGACGUACGCUUCAAGTT against Ceecam1 | inactive: 1.77 |
| GGUCUUUCCUAAUAAGCAGTT against F830208F22Rik | inactive: -0.31 |
| GCAUUAGGUAUGGUCAAGATT against Ris2 | inactive: -1.87 |
| GGCAGCACCAUCGUCUAAUTT against 4930432E11Rik | inactive: -1.43 |
| CGUAAUCUUCAUCUUAGUATT against Olfr614 | inactive: 1.22 |
| GGACCCAGCAGUCAAGAUATT against 9930038B18Rik | inactive: 0.872 |
| GGAAGAAUUUCGUACUAUGTT against Papolb | inactive: -0.59 |
| CCACCUUCCAUGGUCAGUATT against Xpo4 | inactive: -2.26 |
| GCUACCCAUGAGCUUUCGATT against S100a3 | inactive: 0.451 |
| GGAUAAAACUAGAAAUGGGTT against Edem1 | inactive: 1.28 |
| GCACAAGGAAAUCUAUCUATT against Cenpj | inactive: -0.461 |
| GGUGCAUUUUGUCUAUGAUTT against 6330527O06Rik | inactive: -0.24 |
| GCGCAAGGAGAUCAUAGUCTT against 4930564N15Rik | inactive: -0.94 |
| GGACUGAGGAAGAAUUUAATT against Grp58 | inactive: -0.954 |
| CCUCAUAGCCAGUCUUUUUTT against Pafah2 | inactive: 0.408 |
| CCUUACAGGACAUAAAACATT against Tde2 | inactive: -2.09 |
| GGCUGUCAUGAUCAGUCAUTT against V1rc7 | inactive: 0.621 |
| GGAAGAAUUGCUUUGCCUCTT against Krt1-24 | inactive: -1.84 |

| Sequence | z-score |
| --- | --- |
| CCUAUGAAGGUGAAUGCUUTT against Fbxl4 | inactive: 0.651 |
| CCCAGAGCCAGGUUCAAACTT against LOC446210 | inactive: -2.03 |
| CCACUUUACAGUGUUGAUATT against Eaf1 | inactive: 0.23 |
| GCUUGUGGAAGAACCUACUTT against Hoxc13 | inactive: -0.97 |
| CCACGCUACAUGCAAUGGCTT against Itpka | inactive: -0.105 |
| GGUGCAAACUAAAAAUCUUTT against Enc1 | inactive: 1.19 |
| GGAAGACGAAGACGACAUUTT against Ercc3 | inactive: 1.29 |
| GCUGUACGAGCAUACUGUGTT against Tnxb | inactive: 0.27 |
| CCGGUUUGGGAAAAAGAAATT against Olfr610 | inactive: -1.07 |
| GGCUUGUUUCUGUGAUGAATT against Zfp330 | inactive: 0.853 |
| GGAGAAUUAAAAUGUGAAGTT against Hsd17b4 | inactive: 0.807 |
| GCCACCAUUAUGGCUAUGGTT against Pcsk4 | inactive: 0.212 |
| CCCUGCCCGGGUUUUUAUATT against 9430079M16Rik | inactive: -0.727 |
| GCCCAGUUUGUCACAAAGCTT against Sorl1 | inactive: -0.0208 |
| GGGAUUCUUUUUGUGGAAATT against 6330414G21Rik | inactive: 0.165 |
| GCGCGAAUUCUACUUUGACTT against Kcnf1 | inactive: 1.86 |
| GCCGGGAGAAAUAAAUGGUTT against Mif | inactive: 0.12 |
| GGCUGAGAAUGCAAGAAUGTT against Krt1-2 | inactive: 0.48 |
| CCCUUUGACUAACCCUCUCTT against Tfpt | inactive: -0.294 |
| GGAGAGGAGAGAGGGAAAATT against Sox4 | inactive: 1.79 |
| GGAAAUGUGUGAAAUAACCTT against Hip2 | inactive: 0.534 |
| CCGAUUGGCUCGAUACUAUTT against Rps13 | inactive: -3.32 |
| GGUCUAUCAGUCUAUCAGATT against Btbd1 | inactive: -0.353 |
| GGAGAUGACCAAGUACCACTT against Hdac1 | inactive: 1.69 |
| CCUUGAGCAAAUCACACAUTT against Stk32b | inactive: -0.0667 |
| CCUUGUUGACCCAACCAAATT against Nr1h3 | inactive: 0.595 |
| CCCUGGGACUGAAUUUGGUTT against Scnn1b | inactive: 0.684 |

Part of the list above, with each value named:
GGUUGAAUCAAGAGGAAAATT against 1300007B12Rik
  z-score: inactive: 1.35
GGCUGAGAAUGCAAGAAUGTT against Krt1-2
  z-score: inactive: 0.48
CCCUUUGACUAACCCUCUCTT against Tfpt
  z-score: inactive: -0.294

Further records follow:

| Sequence | z-score |
| --- | --- |
| GGGUGAUAAGCAGUUAUACTT against Wdr75 | inactive: -2.39 |
| GGUCAUCUACCAACUCAGATT against Ifi202b | inactive: -0.412 |
| GGGCUACUCAAUGUCUUAUTT against E230012M21 | inactive: -1.31 |
| GGAUGUUCUAAAGAAGAGATT against 3110010F15Rik | inactive: 0.146 |
| GCAAUAGACAUUUAAAGCATT against Pdlim3 | inactive: 0.671 |
| GGACAAUCCGAACAUCAAATT against Sval1 | inactive: 1.51 |
| GGAAUACAUCGAAAUCAACTT against 4930583C14Rik | inactive: 0.0124 |
| GGUAAAAGACUAAAGAAGATT against Coch | inactive: -1.61 |
| GUCUUUGUUCAGGAGGUGATT against 2310047C17Rik | inactive: 0.394 |
| GGAAAAAGCCUAACUAUGATT against Ccnl1 | inactive: -0.157 |
| CCUAACCACUACCUUAUACTT against H2-DMa | inactive: 0.1 |
| CGGGACAAGUCCAAAUUGUTT against Ear5 | inactive: 0.54 |
| GGCCAAUGAGAACAGCCUGTT against Ndst1 | inactive: -0.786 |
| GCUACAUCGUUCGAGCUAGTT against Cyc1 | inactive: 1.56 |
| GGACAUAAAAGUGUCUCGATT against Cldn13 | inactive: 0.763 |
| CCUUACGAGAAAAAAUUAGTT against Spats1 | inactive: 0.274 |
| GCUAUAUCUACGACAAGGATT against Crip2 | inactive: 0.969 |
| GGACCAUUCGAAAAAUGCCTT against Cd5 | inactive: 0.914 |
| GGAAUUCUCCAGAAAGCUCTT against 6620401K05Rik | inactive: -1.46 |
| CGACUAUCAGCAGCUGAAGTT against Igf1r | inactive: 0.986 |
| GUGGUUUGCAUUUUUCUUUTT against Olfr134 | inactive: 0.187 |
| CGGACAACGUGGCUUUGUCTT against Pstpip1 | inactive: 0.0837 |
| GGAUUACAGAAGCCCACACTT against BC025458 | inactive: 0.217 |
| CCACCGAAAUCCUUAUUUUTT against Ppargc1a | inactive: 0.946 |
| GGUGUAGGCUGUCCAAUAATT against AW540478 | inactive: -1.58 |
| GCCUAGUAGAACUCCCAGCTT against Txn2 | inactive: -0.7 |
| CCAUUAUUUCUACUCUCCCTT against Rpn1 | inactive: 0.458 |

| Sequence | z-score |
| --- | --- |
| CGGAGCAUGAGCCAGAUAUTT against Tssc1 | inactive: -0.267 |
| CCUUCGUAGUCUUGAUGUGTT against Olfr1179 | inactive: -1.65 |
| GGUGGUUACACAAGGAACATT against Phgdh | inactive: 0.894 |
| GGAGGCUCAACUGUGUUAATT against Tnfrsf4 | inactive: 2.46 |
| GGAGAAACUUUCAAAAGACTT against Trim36 | inactive: 0.958 |
| GGGAGUAUGAUUUUGAGGATT against A930037G23Rik | inactive: 0.205 |
| GGAUGGAGAAAAUGUUAUGTT against Strbp | inactive: -0.314 |
| CCGCGCCGUUGAUUCAUUUTT against 4930513F16Rik | inactive: 0.336 |
| GGAAGCUAUGAGUUUGGAATT against Tsga2 | inactive: -0.153 |
| CCGUUUUGAACCAUAAAAATT against Zfp7 | inactive: -1.36 |
| GGGCAGAAUUACGAAAGUATT against Smc2l1 | inactive: -1.42 |
| GGAAUCACCCAUCUUUUUATT against Tmem32 | inactive: 1.14 |
| GGAUAAACAUCAUGAAGCUTT against Scgb1a1 | inactive: 0.411 |
| CCAGGAUUACUAUCACAAATT against Ep400 | inactive: -1.95 |
| GCCAGUGGUAGCGAUAUGATT against Gm397 | inactive: 1.59 |
| CGCAGUGAGGAGUAUGAAGTT against Nin | inactive: 1.43 |
| GGACAGCAGUUUUUACUAGTT against Mllt10 | inactive: 0.997 |
| GGAUUCCUAAAUUCUGUGATT against BC023882 | inactive: 0.701 |
| GGAAACCCACAAAAAACAATT against C630013N10Rik | inactive: -0.512 |
| GGCUACUCAGCAGAUUGUCTT against Dclre1b | inactive: 0.507 |
| CCUUUAUUCUCUGUAUUUGTT against Obox1 | inactive: 0.29 |
| GCCUCUGUCAUUGAAGCUGTT against D630047F21Rik | inactive: 0.216 |
| CGGUUUGCACAAGAAAUGGTT against Svs6 | inactive: 1.11 |
| GGACUUAACUAGUUGACAATT against 2810417H13Rik | inactive: 0.118 |

A different layout for some results above.
Sequence | z-score
GCUGUACGAGCAUACUGUGTT against Tnxb | inactive: 0.27
GGAGAGGAGAGAGGGAAAATT against Sox4 | inactive: 1.79
GGGCUACUCAAUGUCUUAUTT against E230012M21 | inactive: -1.31
